# Results published in PubChem BioAssay AID2685 (National Center for Advancing Translational Sciences (NCATS), 2010).
# Some of the results follow. Shown are side measurements of this screen, not its main read-out; they come without a call. Most of these compounds were active or inconclusive in the main read-out, so they are no random draw. Words in brackets tell the shape of the fitted curve; partial curves, single points and poor fits give uncertain potencies.
# Assay: qHTS Assay for Lipid Storage Modulators in Drosophila S3 Cells;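 as to cell number change: cells counted by Cell Tracker Red CMTPX staining in the red channel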
# Details: BODIPY lipid droplet fluorescence, 18-24 h; for cell number change: measured here: cell count max response, cells fed with added oleic acid
# Summary of the method: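 Drosophila S3 cells loaded with oleic acid (400 uM, as added) and compounds at several concentrations; lipid droplets imaged by 488-nm laser-scanning cytometry, 500–530 nm intensity and object ratio to cell channel. Percent activity normalized to 20 uM Triacsin C.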
# [1] = measured here: lipid fluorescence (Fed channel) AC50, cells fed with added oleic acid
# [2] = measured here: cell number channel AC50, cells fed with added oleic acid
SMILES,cell number change [%],AC50 [1],AC50 [2]
CN1CCN(CC(=O)N2c3ccccc3Sc3ccccc32)CC1,-6.57,"0.731 µM [falling, full curve]",
Cc1ccnc(NC(=O)CCC(=O)N(Cc2ccco2)C(C(=O)NC(C)C)c2ccc(F)cc2)c1 (centres undefined),4.58,"0.103 µM [falling, single point]",
O=C(CN(C(=O)CCC(=O)Nc1nccs1)c1ccc(F)cc1)NCC1CCCO1 (centres undefined),12.6,"7.31 µM [rising, partial curve]",
CC(C)(C)c1ccc(C(=O)NCc2nnc(SCC(=O)NCc3ccco3)o2)cc1,-18.1,"35.5 µM [falling, single point]",
CC1(C)CC(N2CCCCC2)=CC(=[N+]2CCCCC2)C1,,"0.411 µM [falling, single point]","0.184 µM [falling, full curve, poor fit]"
COc1ccc(N(CC(=O)NCc2cccs2)S(=O)(=O)c2c(C)nn(C)c2C)cc1,59.2,"0.13 µM [rising, single point]","2.91 µM [rising, single point]"
CCC(NC(=O)Nc1nccs1)(C(F)(F)F)C(F)(F)F,-56.2,"29.1 µM [falling, single point]","18.4 µM [falling, partial curve]"
CCC(=O)Nc1ccc(S(=O)(=O)N2CCCCC2)cc1OC,84.1,"0.92 µM [rising, partial curve]","8.2 µM [rising, partial curve, poor fit]"
O=C(Cc1ccccc1)NCC(=O)Nc1ccc(OC(F)(F)F)cc1,17.5,"16.4 µM [rising, partial curve, poor fit]",
CCN(CC)C(=O)c1sc(NC(=O)c2cccc([N+](=O)[O-])c2)c(C#N)c1C,-11.4,"6.51 µM [falling, single point]",
CCOC(=O)C(=O)/C(C#N)=C/Nc1ccccc1,38.8,"1.03 µM [falling, full curve]","18.4 µM [rising, single point]"
COc1ccc(Cl)cc1NC(=O)CN(C)C(=O)c1ccc(-n2nc(C)cc2C)cc1,-6.45,"0.0206 µM [rising, single point]",
O=C(Nc1ccc(F)cc1)N(Cc1ccco1)Cc1cc2cc3c(cc2[nH]c1=O)OCO3,,,"2.91 µM [rising, partial curve]"
Cn1cc(CNC(=O)c2cc(-c3ccccc3)nc3ccc(Br)cc23)cn1,-54.2,"1.3 µM [falling, partial curve]","29.1 µM [falling, single point]"
CC(C(=O)N1CCOCC1)N1C(=O)C2C3C=CC(C4CC34)C2C1=O (centres undefined),4.46,,
COc1ccccc1-n1cnc(N)c1C(C)=O,-8.71,"0.651 µM [falling, single point]",
O=C(Nc1ccc(N2CCOCC2)cc1)c1ccc2nc(-c3ccco3)c(-c3ccco3)nc2c1,-26.1,"29.1 µM [falling, single point]",
Cc1ccc(S(=O)(=O)N(C)c2ccc(OC(=O)c3ccc(N4CCCC4=O)cc3)cc2)cc1,-7.43,,
CC/C(=N/Nc1cccc(C)c1)c1cnnc(SC)n1,2.77,"3.66 µM [falling, partial curve]","7.31 µM [rising, single point]"

# Random excerpt: 3 entries already listed.
SMILES,cell number change [%],AC50 [1],AC50 [2]
O=C(Nc1ccc(N2CCOCC2)cc1)c1ccc2nc(-c3ccco3)c(-c3ccco3)nc2c1,-26.1,"29.1 µM [falling, single point]",
O=C(Nc1ccc(F)cc1)N(Cc1ccco1)Cc1cc2cc3c(cc2[nH]c1=O)OCO3,,,"2.91 µM [rising, partial curve]"
CN1CCN(CC(=O)N2c3ccccc3Sc3ccccc32)CC1,-6.57,"0.731 µM [falling, full curve]",

# (cont.)

SMILES,cell number change [%],AC50 [1],AC50 [2]
Cc1ccc(C(=O)N(Cc2nnc(-c3ccc(Cl)cc3)o2)C2CC2)o1,30.3,"4.61 µM [falling, partial curve]",
S=C(NCCc1ccccc1)NCCN1CCOCC1,19.4,"18.4 µM [rising, partial curve]","0.116 µM [rising, full curve, poor fit]"
COc1ccc2nc(SCC(=O)Nc3ccc4sc(C)nc4c3)c(C#N)cc2c1,,"0.731 µM [rising, single point]",
COc1ccc(OCC(=O)Nc2sc3c(c2C(=O)NCC2CCCO2)CCC3)cc1 (centres undefined),25.3,,
CC(C)c1ccc(C(O)c2nc3ccccc3n2C)cc1 (centres undefined),-25.2,"29.1 µM [falling, single point]",
CC(=O)c1cnc(Nc2nc(C)c3cccc(C)c3n2)nc1C,14.4,"3.66 µM [rising, full curve, poor fit]",
CCCc1[nH]nc2c1C(CCC)C(C#N)=C(N)O2 (centres undefined),-0.748,,
O=C(NC(=S)Nc1ccc2[nH]c(=O)[nH]c2c1)c1cncc(Br)c1,-29.2,"0.461 µM [falling, full curve]","0.731 µM [falling, full curve, poor fit]"
O=C(NCC(c1ccco1)N1CCc2ccccc21)C(=O)Nc1ccccc1 (centres undefined),,"29.1 µM [rising, single point]",
CC(C)(C)NC(=O)c1ccc(C(=O)NC(C)(C)C)cc1,2.61,"6.51 µM [rising, single point]",
COCCCNc1nc2ccccc2nc1NS(=O)(=O)c1ccc(OC)cc1,9.8,"7.31 µM [rising, partial curve, poor fit]",
Cc1ccc2c(c1)N(CCCC(=O)NCC1COc3ccccc3O1)C(=O)CO2 (centres undefined),141,,"29.1 µM [rising, partial curve, poor fit]"
CN(CC(=O)Nc1ccc(F)cc1)C(=O)CSc1nncs1,9.76,"0.82 µM [rising, full curve, poor fit]",
O=C(O)C1CSC2(c3ccc(F)cc3)CCC(=O)N12 (centres undefined),16.3,"0.0058 µM [rising, full curve]",
C=CCn1c(SCC(=O)c2ccc(NS(=O)(=O)c3ccccc3)cc2)nnc1-c1cccs1,16.8,,
O=C(NCC1CCCO1)c1cc(-c2ccccc2)nc2ccccc12 (centres undefined),1.64,"2.06 µM [rising, partial curve]",
CN(C)CCNC(=O)CCCNC(=O)Cn1cnc2sc3c(c2c1=O)CCCC3,-22.6,"0.651 µM [falling, full curve]",
Cn1c(=O)c2c(nc(CO)n2C)n(C)c1=O,-28.4,"1.16 µM [falling, full curve, poor fit]",
